Source: PubChem BioAssay AID1259254 (NCATS, 2017)
The deposit covers about 59,000 reagents; below is a part drawn at random. In the full data, about 1,550 (2.6%) got an active call. 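G2 share is only a proxy for re-replication; each gene was hit by three separate siRNAs, and active genes were retested.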 The numbers tell different reagents against one gene apart. Not all columns of the deposit are shown. The record does not give: the amount of reagent.

- Aim: 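Finding genes that stop cells copying their DNA twice in one cycle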 (primary screen)
- System: human HCT116 colorectal cancer cells
- Reagents: single siRNA against human genes
- Duration: 3 days
- Measured: 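Imaged Hoechst DNA stain sorts each cell into a cycle phase by DNA amount; per plate, G2 fraction set to 0% for non-targeting and 100% for GMNN siRNA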
- Direction: G2 robust z-score: higher = more G2 cells, more excess DNA replication
- Rule for the call: 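An siRNA counts as active if its G2 robust z-score lies at least 5 MADs above the screen median; here such calls match roughly 38% of GMNN control or more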

With knock-down of RAB5C #1, the screen gave G2 robust z-score -0.524; inactive.
After knock-down of RAB5C #2, the record shows G2 robust z-score 2.3; inactive.
After knock-down of RAB5C #3, the record shows G2 robust z-score 3.02; inactive.
SORL1 #1 showed G2 robust z-score 6.04; active.
With knock-down of SORL1 #2, the screen gave G2 robust z-score -0.587; inactive.
After knock-down of SORL1 #3, the screen gave G2 robust z-score 3.33; inactive.
With knock-down of BRMS1L #1, the screen gave G2 robust z-score -0.293; inactive.
After knock-down of BRMS1L #2, the screen gave G2 robust z-score 0.161; inactive.
Depletion of BRMS1L #3 gave: G2 robust z-score -0.577; inactive.
Against RNF20 #1 the deposit lists G2 robust z-score -0.644; inactive.
Depletion of RNF20 #2 resulted in: G2 robust z-score 1.53; inactive.
RNF20 #3 scored G2 robust z-score 1.17; inactive.
After knock-down of RARA #1, the record shows G2 robust z-score -0.143; inactive.
Knock-down of RARA #2 came out at: G2 robust z-score -1.04; inactive.
RARA #3 gave G2 robust z-score -0.538; inactive.
Knock-down of PLXNC1 #1 came out at: G2 robust z-score 0.173; inactive.
Knock-down of PLXNC1 #2 came out at: G2 robust z-score -0.288; inactive.
For PLXNC1 #3 the deposit lists G2 robust z-score -0.503; inactive.
Against NUDT6 #1, the values are G2 robust z-score -0.924; inactive.
NUDT6 #2 scored G2 robust z-score 1.11; inactive.
NUDT6 #3 gave G2 robust z-score -0.125; inactive.
Against ANKRD30BP3 #1, the entry reads G2 robust z-score -0.345; inactive.
ANKRD30BP3 #2 scored G2 robust z-score 0.335; inactive.
Knock-down of ANKRD30BP3 #3 gave: G2 robust z-score -0.508; inactive.

4 of these entries, set out differently:
{"gene knocked down": "BRMS1L", "reagent no.": 2, "G2 robust z-score": 0.161, "Call": "inactive"}
{"gene knocked down": "BRMS1L", "reagent no.": 3, "G2 robust z-score": -0.577, "Call": "inactive"}
{"gene knocked down": "RNF20", "reagent no.": 1, "G2 robust z-score": -0.644, "Call": "inactive"}
{"gene knocked down": "RNF20", "reagent no.": 2, "G2 robust z-score": 1.53, "Call": "inactive"}
